The results are deposited in PubChem (AID1159506; NCATS, 2015).

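Genome-wide siRNA knockdown in TC32 Ewing sarcoma cells, comparing luciferase light from an NR0B1-promoter reporter with a CMV-promoter reporter 48 hours after transfection.
Each siRNA was applied at 20 nM.
A z-score of the log NR0B1-over-CMV signal, less the median of siRNAs with the same seed; more negative means a stronger specific loss of the NR0B1 reporter.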

The strongest results of the screen are mostly left out here.
Sequences are the guide (antisense) strand, without overhang.

| # | siRNA | target gene | seed-corrected z-score |
|---|---|---|---|
| 1 | `UGACUGCACACUCCCGUUU` | TMED1 | -0.01522 |
| 2 | `UCAGCUAUGAUUAUCUGCC` | TTC39C | 0.01218 |
| 3 | `UGUACGUAAUGUUACAGCC` | AFAP1 | 0.3152 |
| 4 | `ACGGUCAUCACAUAUGUUC` | CDH2 | 0.1626 |
| 5 | `UUCCCGAUCACUGUACCAG` | PCDH12 | 0.4548 |
| 6 | `UGUCUUGUAAUGAUGUUCC` | ZBP1 | -1.89 |
| 7 | `AAACUGACUAUUAGGAUUG` | BLOC1S4 | 0.3335 |
| 8 | `UUACAAGCAAGGUGAGUCC` | MAD2L1 | 0.7075 |
| 9 | `UUUCCAGUGAAAAUAACGG` | GPR89A | 0.06992 |
| 10 | `UUGGGUAAACUCAUCCAUG` | APEX2 | -0.3871 |
| 11 | `ACUCGAUACAGUUGGAUCC` | SH3TC2 | -0.2745 |
| 12 | `UUGGAGGAAAUGAUAUUGC` | CELF5 | -0.1305 |
| 13 | `ACAGGUAAAGGUCUCUUCC` | KLF3 | 0.1813 |
| 14 | `UACUUGAAUACCGGCACUC` | ALDH1L1 | 0.2098 |
| 15 | `UUCUUGAUAGAUUUGCUGC` | CLEC4M | 0.02206 |
| 16 | `UAAGGGACAGAGUAGGCAC` | SYNDIG1L | -0.284 |
| 17 | `UGCAGUAUCAAGAAUCUUG` | HMBS | -0.07822 |
| 18 | `UGUUAAAGAACUAACAGGC` | MRPS27 | 2.199 |
| 19 | `UAAGCUGUGAUAUCGCUCC` | RAB5B | 0.1792 |
| 20 | `UAAUGUAGUCGCGGUGCUG` | FUT7 | -0.4212 |
| 21 | `UCUGUGCAGACAUCAGUUC` | SPATA31E1 | 0.4113 |
| 22 | `UCUCUUCCAACUGUUUCCC` | RSL24D1 | -1.244 |
| 23 | `UUAAUAAUAACACCCAGAG` | TAS2R45 | 0.2957 |
| 24 | `AGGAGUACCAUCACCAAGC` | FCGR3A | 0.4761 |
| 25 | `UGCAUACCCAGUCUUAAGC` | SPTY2D1 | 1.042 |
| 26 | `UGAUCCACCUGAAAGUUGC` | TMEM150A | 0.4533 |
| 27 | `AUACCCAGAAUAUCCAUAC` | OR52W1 | 0.3235 |
| 28 | `AUACCUAUAAAGAAGAUUG` | KLHL36 | 0.5194 |
| 29 | `AUCUGGAUCAGACCAUAGC` | PPP1CB | -0.1689 |
| 30 | `UCCGAGUGAACAAAUAAGC` | KLHL30 | -0.4539 |
| 31 | `UCUAAACUUAGUGUUAUCC` | SRSF1 | 1.109 |
| 32 | `AUCUUUGUUACAUAGAUGC` | DLG4 | 0.796 |
| 33 | `UUGCUCUUCAGCUGAAUCC` | TSPAN14 | -0.0553 |
| 34 | `AUGGUUUGCAUAUUCGUUU` | NAA40 | -0.9472 |
| 35 | `UCAUAGGACAUUAGGAUGC` | WBP2 | 0.9336 |
| 36 | `UUCUAAAUCCCACUUUUUC` | FCGR1A | 1.004 |
| 37 | `CUCUCAAUUUCUUUGCAUG` | DEFB115 | -0.03988 |
| 38 | `UAAGUUGAAUUGUCAAUGG` | ST8SIA1 | 1.238 |
| 39 | `UUACUGAUAAACCGGGUGC` | CCNF | 0.1864 |
| 40 | `UCCUGAAUCAAUAACCAUC` | KPNA3 | 0.3362 |
| 41 | `UAUAGGCUCGUAAUCAUCC` | DENND2D | 0.4792 |
| 42 | `UUUCUCUCUAGUGACGGUC` | CCDC89 | 0.04763 |
| 43 | `UUUGUAAGAAGCAUCGAGC` | FLJ38576 | 0.4612 |
| 44 | `UACGCUCUUGUCGAUGUCC` | SAP30L | 0.2708 |
| 45 | `UCAGGUUACAGAAGCAGGC` | WISP1 | 0.05284 |
| 46 | `AUACGAAGACAAAAGAUCC` | CFAP54 | -0.5998 |
| 47 | `UGAUUAAUCUGAAUGUUGG` | OR1D2 | 0.8711 |
| 48 | `CAUAUGCUGCUUCCCGACC` | TMEM160 | 1.018 |
| 49 | `UCUGGAUCCAGCUCAAACC` | SLC5A6 | 1.198 |
| 50 | `UCAGGAACCAUCGGACUUG` | HLA-DPB1 | 0.3587 |
| 51 | `UGUGGGAUCAAAGAUUUCU` | E2F4 | -0.09212 |
| 52 | `UGUUUAAUAAGUUGUGAGC` | ZNF566 | -0.3236 |
| 53 | `UUACUAAUUUGUCCACAGG` | MAPRE1 | 0.5394 |
| 54 | `UUUGGAAAGACCACGAUCC` | FNTA | 0.2512 |
| 55 | `AUAGAUUAGAGGAUUCAGC` | OR8D2 | -0.933 |
| 56 | `UUUCCCAUAUUCUGGAGCC` | USP17L2 | -0.4987 |
| 57 | `UUUUCAUCUCGAAUGGUUU` | LRIF1 | -1.498 |
| 58 | `UCAGUGAUAGAGUCAAUCC` | DLGAP1 | 0.02647 |
| 59 | `UGGUUUAUACAUAAGUGCC` | ZNF793 | -0.2666 |
| 60 | `UUUCUUUAGGACUUUGUCC` | TADA2B | -0.04628 |
| 61 | `UUAGCUAUGUCUAAGUACG` | NUB1 | 0.6529 |
| 62 | `UUGAUGUACACGUCGAAGU` | C9orf69 | -0.3858 |
| 63 | `UUCACCUUCACCGUCUUUG` | GSDMA | 0.4508 |
| 64 | `AACGGAAGUAGUAGGAGGC` | SLC6A8 | -0.003448 |
| 65 | `UUUCCGGCCUUCUUCAUCC` | POLG2 | -0.06984 |
| 66 | `AUAGUAGACAGCGAUGGAG` | TEX264 | 0.538 |
| 67 | `UACCAGAUUCGAACUGAGG` | PPEF1 | 0.3607 |
| 68 | `UGAGUGACAAUGGAGUAGC` | CD300LF | 0.6088 |
| 69 | `UCCACUGCGAACUUCCUCU` | ZNF688 | -1.248 |
| 70 | `UUUGGUAGAAGCUAGAGUC` | LAX1 | -0.1095 |
| 71 | `AAAUUCAUCUCUGAUGUCA` | LOC728684 | 1.394 |
| 72 | `UGUCGGAAGGGAUCUGAGC` | LMX1A | 0.04969 |
| 73 | `UACGUUGAUCCUUUAGUGG` | PHKB | -1.579 |
| 74 | `ACCGUAAAAUGGAUUCUCC` | CCDC7 | 0.9441 |
| 75 | `UUCAGUGUCAGUAAUCUGG` | LRRC23 | 0.7157 |
| 76 | `AAGGUAAUAAAGCAGAACC` | HNRNPD | -0.006142 |
| 77 | `UCAACGAAGAGAAAGAGGC` | RIN2 | 0.2195 |
| 78 | `UGCAUAAUCGAUAAGAGUC` | ARHGAP11A | 0.567 |
| 79 | `UGACCAAUCACUCAGCUCG` | FXR1 | 0.6024 |
| 80 | `UCCAGUAACUUUCUUUUCC` | IFIT2 | 0.1372 |
| 81 | `UAGUGUCCCACAACAUUGC` | SLC30A1 | 0.1354 |
| 82 | `UUUCUCAUAAACAAGGAAC` | SLC25A17 | -0.2285 |

The first 7 entries again:

{"sirna": "UGACUGCACACUCCCGUUU", "target gene": "TMED1", "seed-corrected z-score": "-0.01522"}
{"sirna": "UCAGCUAUGAUUAUCUGCC", "target gene": "TTC39C", "seed-corrected z-score": "0.01218"}
{"sirna": "UGUACGUAAUGUUACAGCC", "target gene": "AFAP1", "seed-corrected z-score": "0.3152"}
{"sirna": "ACGGUCAUCACAUAUGUUC", "target gene": "CDH2", "seed-corrected z-score": "0.1626"}
{"sirna": "UUCCCGAUCACUGUACCAG", "target gene": "PCDH12", "seed-corrected z-score": "0.4548"}
{"sirna": "UGUCUUGUAAUGAUGUUCC", "target gene": "ZBP1", "seed-corrected z-score": "-1.89"}
{"sirna": "AAACUGACUAUUAGGAUUG", "target gene": "BLOC1S4", "seed-corrected z-score": "0.3335"}